The supplement of paper PMC10849652
Some of the results follow.

By UniProt entry, the sequences of proteins in these tests, tags left out. Where a name states a change or a piece, a line headed by the entry shows the natural chain unless it says otherwise.
UniProt Q96EP1: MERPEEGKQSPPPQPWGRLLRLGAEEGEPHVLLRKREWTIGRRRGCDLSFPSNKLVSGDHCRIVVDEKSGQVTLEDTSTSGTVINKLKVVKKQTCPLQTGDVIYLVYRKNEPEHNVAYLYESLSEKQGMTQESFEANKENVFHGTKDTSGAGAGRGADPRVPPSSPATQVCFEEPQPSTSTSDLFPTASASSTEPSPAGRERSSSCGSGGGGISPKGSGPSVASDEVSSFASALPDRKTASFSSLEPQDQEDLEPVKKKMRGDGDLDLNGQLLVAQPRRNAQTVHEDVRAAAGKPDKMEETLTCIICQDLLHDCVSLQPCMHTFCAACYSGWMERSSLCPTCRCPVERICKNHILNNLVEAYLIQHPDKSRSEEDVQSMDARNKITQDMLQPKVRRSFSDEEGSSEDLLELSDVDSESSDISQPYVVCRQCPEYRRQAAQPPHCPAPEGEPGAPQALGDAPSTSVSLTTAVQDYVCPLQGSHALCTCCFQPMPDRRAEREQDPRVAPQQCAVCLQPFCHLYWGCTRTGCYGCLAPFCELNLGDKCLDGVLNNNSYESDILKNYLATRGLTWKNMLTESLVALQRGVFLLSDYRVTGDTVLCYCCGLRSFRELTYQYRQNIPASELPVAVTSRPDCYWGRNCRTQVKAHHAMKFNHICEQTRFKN
UniProt Q6ZTR5: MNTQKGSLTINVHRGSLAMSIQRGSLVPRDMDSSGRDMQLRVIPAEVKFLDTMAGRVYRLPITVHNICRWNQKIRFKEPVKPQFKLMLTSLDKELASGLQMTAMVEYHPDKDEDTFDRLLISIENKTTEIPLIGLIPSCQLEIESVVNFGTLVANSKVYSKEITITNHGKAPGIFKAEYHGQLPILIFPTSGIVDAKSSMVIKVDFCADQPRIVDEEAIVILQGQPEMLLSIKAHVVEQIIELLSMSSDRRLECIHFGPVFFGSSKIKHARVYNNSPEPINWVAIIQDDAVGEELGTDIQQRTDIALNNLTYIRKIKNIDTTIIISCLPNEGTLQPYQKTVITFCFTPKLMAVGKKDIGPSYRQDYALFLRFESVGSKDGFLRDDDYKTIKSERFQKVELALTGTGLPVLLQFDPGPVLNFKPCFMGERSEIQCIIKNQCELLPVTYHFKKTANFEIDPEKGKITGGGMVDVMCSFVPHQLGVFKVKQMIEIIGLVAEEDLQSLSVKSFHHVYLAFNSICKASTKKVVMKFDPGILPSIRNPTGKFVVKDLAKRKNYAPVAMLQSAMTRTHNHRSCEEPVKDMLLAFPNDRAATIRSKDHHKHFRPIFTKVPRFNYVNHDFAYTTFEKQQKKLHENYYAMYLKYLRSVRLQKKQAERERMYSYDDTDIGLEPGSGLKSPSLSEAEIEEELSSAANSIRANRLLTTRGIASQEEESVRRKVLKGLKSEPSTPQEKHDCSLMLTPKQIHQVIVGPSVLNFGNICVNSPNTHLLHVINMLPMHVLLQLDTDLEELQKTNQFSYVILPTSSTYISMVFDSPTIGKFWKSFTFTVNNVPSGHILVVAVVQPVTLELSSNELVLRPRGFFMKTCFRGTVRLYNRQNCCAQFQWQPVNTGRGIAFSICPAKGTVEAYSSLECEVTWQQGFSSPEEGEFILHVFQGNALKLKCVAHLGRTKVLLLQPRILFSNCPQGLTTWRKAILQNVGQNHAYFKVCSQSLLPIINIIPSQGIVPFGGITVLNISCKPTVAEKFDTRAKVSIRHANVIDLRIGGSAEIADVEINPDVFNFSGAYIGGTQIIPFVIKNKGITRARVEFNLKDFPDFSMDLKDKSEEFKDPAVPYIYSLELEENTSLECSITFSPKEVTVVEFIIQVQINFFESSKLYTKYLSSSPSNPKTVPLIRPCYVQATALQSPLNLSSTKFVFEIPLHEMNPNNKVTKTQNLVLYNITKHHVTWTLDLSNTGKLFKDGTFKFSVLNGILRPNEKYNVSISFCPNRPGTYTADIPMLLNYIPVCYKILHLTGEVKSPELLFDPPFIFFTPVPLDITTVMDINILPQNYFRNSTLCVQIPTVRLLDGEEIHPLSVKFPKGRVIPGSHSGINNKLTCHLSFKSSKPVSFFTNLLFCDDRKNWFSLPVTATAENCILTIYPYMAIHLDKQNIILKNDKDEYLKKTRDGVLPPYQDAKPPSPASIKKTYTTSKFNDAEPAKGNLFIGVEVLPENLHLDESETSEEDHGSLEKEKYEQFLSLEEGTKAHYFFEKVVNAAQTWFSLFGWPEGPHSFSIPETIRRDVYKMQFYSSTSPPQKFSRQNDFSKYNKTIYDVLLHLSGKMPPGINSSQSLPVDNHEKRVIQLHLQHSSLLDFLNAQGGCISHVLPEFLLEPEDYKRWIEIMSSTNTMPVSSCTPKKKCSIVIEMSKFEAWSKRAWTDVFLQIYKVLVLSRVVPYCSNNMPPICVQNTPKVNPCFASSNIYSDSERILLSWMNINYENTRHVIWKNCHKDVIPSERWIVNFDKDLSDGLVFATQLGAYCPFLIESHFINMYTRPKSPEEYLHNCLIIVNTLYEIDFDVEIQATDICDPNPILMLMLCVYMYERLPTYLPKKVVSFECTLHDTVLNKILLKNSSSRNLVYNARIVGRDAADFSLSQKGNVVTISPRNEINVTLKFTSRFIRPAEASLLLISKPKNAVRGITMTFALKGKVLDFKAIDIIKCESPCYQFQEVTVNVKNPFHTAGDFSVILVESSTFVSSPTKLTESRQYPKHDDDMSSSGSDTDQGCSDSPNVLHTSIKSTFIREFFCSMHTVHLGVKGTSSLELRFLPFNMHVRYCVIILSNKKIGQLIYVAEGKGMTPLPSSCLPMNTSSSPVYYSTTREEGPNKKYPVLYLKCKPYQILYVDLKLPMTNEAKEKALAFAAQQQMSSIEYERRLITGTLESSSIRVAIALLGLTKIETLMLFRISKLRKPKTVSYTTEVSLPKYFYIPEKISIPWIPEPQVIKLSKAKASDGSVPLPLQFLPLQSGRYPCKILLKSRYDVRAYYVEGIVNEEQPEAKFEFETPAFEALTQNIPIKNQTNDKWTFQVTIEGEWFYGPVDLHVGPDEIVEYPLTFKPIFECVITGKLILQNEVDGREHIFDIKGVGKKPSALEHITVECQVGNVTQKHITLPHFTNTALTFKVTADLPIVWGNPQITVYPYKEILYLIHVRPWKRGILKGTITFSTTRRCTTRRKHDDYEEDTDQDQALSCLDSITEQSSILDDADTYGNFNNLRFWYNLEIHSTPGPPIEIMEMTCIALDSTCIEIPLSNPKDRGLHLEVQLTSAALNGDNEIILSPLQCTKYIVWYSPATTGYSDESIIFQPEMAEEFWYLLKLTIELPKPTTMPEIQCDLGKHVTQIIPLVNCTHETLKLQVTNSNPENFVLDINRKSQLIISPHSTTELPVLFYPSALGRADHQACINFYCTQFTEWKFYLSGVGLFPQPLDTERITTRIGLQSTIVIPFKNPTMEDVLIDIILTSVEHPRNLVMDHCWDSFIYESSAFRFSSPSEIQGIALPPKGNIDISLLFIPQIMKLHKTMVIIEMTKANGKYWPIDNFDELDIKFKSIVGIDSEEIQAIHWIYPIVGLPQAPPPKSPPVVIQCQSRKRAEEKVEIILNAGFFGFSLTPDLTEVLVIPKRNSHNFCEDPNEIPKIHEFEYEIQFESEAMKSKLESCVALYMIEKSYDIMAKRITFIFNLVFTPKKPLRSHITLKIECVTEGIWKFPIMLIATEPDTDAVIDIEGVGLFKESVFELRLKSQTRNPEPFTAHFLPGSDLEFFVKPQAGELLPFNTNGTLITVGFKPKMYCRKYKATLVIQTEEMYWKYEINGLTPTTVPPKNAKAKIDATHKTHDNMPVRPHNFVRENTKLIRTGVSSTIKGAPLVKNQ
UniProt Q9NRR3: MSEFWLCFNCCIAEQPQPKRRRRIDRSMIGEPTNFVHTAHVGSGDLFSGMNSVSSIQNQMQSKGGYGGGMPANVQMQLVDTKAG
UniProt Q7Z7K6: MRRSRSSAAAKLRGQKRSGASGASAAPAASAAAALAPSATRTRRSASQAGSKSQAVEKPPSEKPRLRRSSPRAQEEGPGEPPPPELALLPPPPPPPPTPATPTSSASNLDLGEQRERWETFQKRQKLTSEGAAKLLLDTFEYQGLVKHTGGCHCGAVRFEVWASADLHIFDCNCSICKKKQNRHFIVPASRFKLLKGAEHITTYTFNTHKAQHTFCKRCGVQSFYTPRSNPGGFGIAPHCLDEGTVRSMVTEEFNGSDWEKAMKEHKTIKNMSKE
UniProt P53567: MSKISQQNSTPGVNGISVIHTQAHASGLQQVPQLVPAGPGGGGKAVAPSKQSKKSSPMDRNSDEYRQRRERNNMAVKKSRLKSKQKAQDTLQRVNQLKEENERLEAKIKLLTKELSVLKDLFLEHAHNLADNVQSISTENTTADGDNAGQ
UniProt Q9BWU1: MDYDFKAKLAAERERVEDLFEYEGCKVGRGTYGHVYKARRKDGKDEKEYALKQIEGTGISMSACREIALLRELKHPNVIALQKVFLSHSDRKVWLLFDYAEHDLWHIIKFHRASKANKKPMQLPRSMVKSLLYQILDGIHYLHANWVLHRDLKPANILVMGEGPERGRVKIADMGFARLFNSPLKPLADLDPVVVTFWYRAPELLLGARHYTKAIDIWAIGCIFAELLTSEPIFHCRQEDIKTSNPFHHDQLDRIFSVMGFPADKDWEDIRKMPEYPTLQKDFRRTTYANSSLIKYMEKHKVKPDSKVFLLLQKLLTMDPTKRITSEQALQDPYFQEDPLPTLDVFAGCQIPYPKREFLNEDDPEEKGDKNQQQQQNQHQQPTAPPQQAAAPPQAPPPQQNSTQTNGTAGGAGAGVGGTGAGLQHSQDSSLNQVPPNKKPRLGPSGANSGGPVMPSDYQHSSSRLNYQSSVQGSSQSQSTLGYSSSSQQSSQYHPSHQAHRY
UniProt Q711Q0: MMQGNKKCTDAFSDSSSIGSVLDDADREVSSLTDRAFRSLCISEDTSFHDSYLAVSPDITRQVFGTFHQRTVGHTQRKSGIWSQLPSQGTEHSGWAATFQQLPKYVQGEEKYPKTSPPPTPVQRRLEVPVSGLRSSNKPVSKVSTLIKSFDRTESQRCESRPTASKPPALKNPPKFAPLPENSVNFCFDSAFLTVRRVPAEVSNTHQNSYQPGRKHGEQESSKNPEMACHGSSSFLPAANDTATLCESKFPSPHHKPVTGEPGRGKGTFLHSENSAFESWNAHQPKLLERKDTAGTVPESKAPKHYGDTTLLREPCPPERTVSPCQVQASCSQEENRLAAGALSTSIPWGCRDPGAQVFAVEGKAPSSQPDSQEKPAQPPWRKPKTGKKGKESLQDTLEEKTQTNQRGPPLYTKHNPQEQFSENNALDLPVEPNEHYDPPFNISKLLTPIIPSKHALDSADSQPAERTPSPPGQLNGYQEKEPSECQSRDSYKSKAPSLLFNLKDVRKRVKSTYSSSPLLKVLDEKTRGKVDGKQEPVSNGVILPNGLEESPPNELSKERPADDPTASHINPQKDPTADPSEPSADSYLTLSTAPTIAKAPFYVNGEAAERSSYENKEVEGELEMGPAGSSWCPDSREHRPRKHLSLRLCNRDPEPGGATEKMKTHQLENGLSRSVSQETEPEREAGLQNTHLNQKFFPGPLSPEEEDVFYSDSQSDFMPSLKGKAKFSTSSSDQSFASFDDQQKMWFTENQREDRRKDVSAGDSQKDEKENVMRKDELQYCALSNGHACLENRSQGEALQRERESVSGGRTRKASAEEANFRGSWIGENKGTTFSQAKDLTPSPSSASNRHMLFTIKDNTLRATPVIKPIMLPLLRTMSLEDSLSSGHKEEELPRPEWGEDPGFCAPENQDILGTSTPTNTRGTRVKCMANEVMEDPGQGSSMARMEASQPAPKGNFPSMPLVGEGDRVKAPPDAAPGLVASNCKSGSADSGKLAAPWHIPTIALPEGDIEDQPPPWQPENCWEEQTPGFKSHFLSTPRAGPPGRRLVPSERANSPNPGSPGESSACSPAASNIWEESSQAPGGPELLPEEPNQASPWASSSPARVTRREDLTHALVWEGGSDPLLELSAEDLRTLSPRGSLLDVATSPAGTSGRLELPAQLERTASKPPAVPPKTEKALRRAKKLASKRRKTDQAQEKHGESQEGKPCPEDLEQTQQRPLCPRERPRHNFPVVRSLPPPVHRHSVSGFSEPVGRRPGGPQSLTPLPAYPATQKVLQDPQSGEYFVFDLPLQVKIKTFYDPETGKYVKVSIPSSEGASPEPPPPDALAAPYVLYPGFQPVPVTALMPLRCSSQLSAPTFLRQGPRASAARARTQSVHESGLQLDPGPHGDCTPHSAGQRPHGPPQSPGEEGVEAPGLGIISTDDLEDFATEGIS
UniProt O14519: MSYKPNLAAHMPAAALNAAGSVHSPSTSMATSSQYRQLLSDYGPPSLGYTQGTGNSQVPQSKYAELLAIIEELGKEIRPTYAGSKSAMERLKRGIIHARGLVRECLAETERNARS
UniProt A8MTT3: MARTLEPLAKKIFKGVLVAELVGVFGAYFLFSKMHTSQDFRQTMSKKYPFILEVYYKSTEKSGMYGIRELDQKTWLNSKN

Compound: COc1cc2nc(-c3cc(F)ccc3O)nc(N[C@@H]3CNC[C@H]3C(C)(C)O)c2cc1OC
Assay: log2 fold change, soluble protein after heating vs DMSO (PISA); higher = thermal stabilisation; K562 cells, 10 uM, 30 min; active = over 0.2 and 3.5 SD of the protein, either way, in both replicates (recomputed)
Method in brief: (§1)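 Soluble protein was defined as the supernatant after 21,000xg for 90 min. It came from K562 cells at 2×10^6 cells/mL given 10 μM compound for 30 min, heated in aliquots for 3 min across 48°C-58°C, pooled, and extracted in PBS with 0.5% NP-40 at 4°C, and was quantified by TMTpro 16plex LC-MS/MS with equalised channel sums. Thermal stability against control samples, from duplicates, is reported as log2 fold change.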

log2 fold change, inactive:
CHFR (UniProt Q96EP1) 0.084, CEND1 (UniProt Q8N111) 0.108, CFAP47 (UniProt Q6ZTR5) 0.031, CDC42SE2 (UniProt Q9NRR3) -0.073, CENPV (UniProt Q7Z7K6) -0.134, CHMP2A (UniProt M0R1T5) 0.064, CFAP58 (UniProt Q5T655) 0, CERS6 isoform 2 (UniProt Q6ZMG9) -0.063, CDH2 (UniProt P19022) -0.236, CEBPG (UniProt P53567) -0.003, CDK19 (UniProt Q9BWU1) 0.138, CHIC1 (UniProt Q5VXU3) 0.113, CHIC2 (UniProt Q9UKJ5) -0.146, CEFIP (UniProt Q711Q0) 0.077, CDK2AP1 (UniProt O14519) -0.044, CHD5 (UniProt Q8TDI0) -0.009, CDC42EP4 (UniProt Q9H3Q1) -0.018, CHCHD10 (UniProt Q8WYQ3) 0.069, CEP85 (UniProt Q6P2H3) 0.188, CENPK (UniProt Q9BS16) 0.061, CEBPZOS (UniProt A8MTT3) -0.085

Compound: COc1cc2ncnc(Nc3ccc(F)c(Cl)c3)c2cc1OCCCN1CCOCC1 [gefitinib]
Assay: as above
Method in brief: as §1

log2 fold change, inactive:
CEP57 (UniProt Q86XR8) -0.23, CDC42SE2 (UniProt Q9NRR3) -0.027, CENPQ (UniProt Q7L2Z9) 0.06, CERS6 isoform 2 (UniProt Q6ZMG9) 0.006, CEBPG (UniProt P53567) 0.103, CDK19 (UniProt Q9BWU1) -0.095, CHIC1 (UniProt Q5VXU3) 0.064, CHIC2 (UniProt Q9UKJ5) -0.038, CDK2AP1 (UniProt O14519) -0.022, CHD5 (UniProt Q8TDI0) -0.003, CDC42EP4 (UniProt Q9H3Q1) 0.038, CFB (UniProt P00751) -0.027, CFL1 (UniProt E9PP50) -0.142, CHCHD10 (UniProt Q8WYQ3) 0.089, CDKN2AIPNL (UniProt Q96HQ2) -0.043, CENPK (UniProt Q9BS16) -0.005, CEBPZOS (UniProt A8MTT3) 0.004
